Results are given in words; binding and its absence hold for the method and conditions named. In cells and extracts the contact can be indirect. Some results given as binding are weak or reduced against the parent protein; the word gives no strength.

Amino acid sequences for entries named in this document (tags omitted).
UniProt Q6A4J8: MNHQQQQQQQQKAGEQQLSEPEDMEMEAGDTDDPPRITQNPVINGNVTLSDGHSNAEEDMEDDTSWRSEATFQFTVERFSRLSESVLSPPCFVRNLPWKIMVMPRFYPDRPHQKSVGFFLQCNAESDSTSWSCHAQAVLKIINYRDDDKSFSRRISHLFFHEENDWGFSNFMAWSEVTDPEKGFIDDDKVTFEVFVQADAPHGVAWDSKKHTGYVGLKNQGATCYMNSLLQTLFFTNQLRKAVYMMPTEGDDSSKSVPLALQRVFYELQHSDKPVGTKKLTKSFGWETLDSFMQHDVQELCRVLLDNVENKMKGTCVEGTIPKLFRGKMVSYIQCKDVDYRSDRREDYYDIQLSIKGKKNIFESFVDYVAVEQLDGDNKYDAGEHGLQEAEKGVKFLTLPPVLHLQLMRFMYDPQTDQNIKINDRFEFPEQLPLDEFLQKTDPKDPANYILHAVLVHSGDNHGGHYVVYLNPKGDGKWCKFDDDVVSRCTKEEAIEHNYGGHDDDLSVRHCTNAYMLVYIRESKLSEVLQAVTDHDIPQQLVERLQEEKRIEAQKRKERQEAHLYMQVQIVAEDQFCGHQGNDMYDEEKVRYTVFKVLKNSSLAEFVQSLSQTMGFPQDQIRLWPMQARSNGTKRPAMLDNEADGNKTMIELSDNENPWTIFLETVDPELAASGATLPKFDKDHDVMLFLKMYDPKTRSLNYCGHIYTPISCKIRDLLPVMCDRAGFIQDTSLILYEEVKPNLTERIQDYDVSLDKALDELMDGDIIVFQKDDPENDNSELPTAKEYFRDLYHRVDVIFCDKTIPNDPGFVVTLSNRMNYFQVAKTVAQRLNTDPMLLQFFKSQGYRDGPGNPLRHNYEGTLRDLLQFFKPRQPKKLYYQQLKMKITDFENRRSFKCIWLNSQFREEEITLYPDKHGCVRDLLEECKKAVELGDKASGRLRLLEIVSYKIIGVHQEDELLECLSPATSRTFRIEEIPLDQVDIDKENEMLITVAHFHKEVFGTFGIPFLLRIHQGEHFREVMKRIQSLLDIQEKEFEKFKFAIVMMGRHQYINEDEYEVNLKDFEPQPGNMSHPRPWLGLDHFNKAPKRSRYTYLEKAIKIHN

Data on one molecule can be found in article PMC10733359.

The target in the assay is de-ubiquitinase USP7, mouse (mouse (endogenous in thalamus)) (UniProt Q6A4J8). The experiment in a line: co-IP; USP7 IP from mononucleosome samples of thalamus of control mice, western blot; saline and cocaine treatment. On the technique in general: A western blot detects proteins with antibodies after separation by electrophoresis.

B1: melanoma-associated antigen D1 (Maged1), mouse (protein, UniProt Q9QYH6 1-775)
chain: MAQKPDGGAGLRGFQAEASVEDSALLVQTLMEAIQISEAPPTSQATAAASGPNASPQSSQPPTANEKADTEVSAAAARPKTGFKAQNATTKGPNDYSQARNAKEMPKNQSKAAFKSQNGTPKGPHAASDFSQAAPTGKSAKKSEMAFKGQNSTKAGPGTTYNFPQSPSANEMTNNQPKTAKAWNDTTKVPGADAQTQNVNQAKMADVGTSAGISEADGAAAQTSADGSQTQNVESRTIIRGKRTRKVNNLNVEENNSGDQRRASLASGNWRSAPVPVTTQQNPPGAPPNVVWQTPLAWQNPSGWQNQTARQTPPAARQSPPARQTPSAWQNPVAWQNPVIWPNPVIWQNPVIWPNPIVWPGPIVWPNPMAWQSTPGWQSPPSWQAPPSWQSPQDWQGPPDWQVPPDWSMPPDWSFPSDWPFPPDWIPADWPIPPDWQNLRPSPNLRSSSNSRASQNQGPPQPRDVALLQERANKLVKYLMLKDYTKVPIKRSEMLRDIIREYTDVYPEIIERACFVLEKKFGIQLKEIDKEEHLYILISTPESLAGILGTTKDTPKLGLLLVILGIIFMNGNRATEAVLWEALRKMGLRPGVRHPLLGDLRKLLTYEFVKQKYLDYRRVPNSNPPEYEFLWGLRSYHETSKMKVLRFIAEVQKRDPRDWTAQFMEAADEALDALDAAAAEAEARAEARNRMGIGDEAVSGPWSWDDIEFELLTWDEEGDFGDPWSRIPFTFWARYHQNARSRFPQAFTGPIIGPSGTATANFAANFGAIGFFWVE
For the molecule B1, the binding entry is reported as “binds”.
